# Results are given in words; binding and its absence hold for the method and conditions named. Binding seen in cells or lysates may run through a third protein. These calls come from enrichment with a bait or labelling near it, and not all partners need be listed.
# The chains behind the UniProt entries cited, without tags or fusion partners.
# UniProt Q9C0X6: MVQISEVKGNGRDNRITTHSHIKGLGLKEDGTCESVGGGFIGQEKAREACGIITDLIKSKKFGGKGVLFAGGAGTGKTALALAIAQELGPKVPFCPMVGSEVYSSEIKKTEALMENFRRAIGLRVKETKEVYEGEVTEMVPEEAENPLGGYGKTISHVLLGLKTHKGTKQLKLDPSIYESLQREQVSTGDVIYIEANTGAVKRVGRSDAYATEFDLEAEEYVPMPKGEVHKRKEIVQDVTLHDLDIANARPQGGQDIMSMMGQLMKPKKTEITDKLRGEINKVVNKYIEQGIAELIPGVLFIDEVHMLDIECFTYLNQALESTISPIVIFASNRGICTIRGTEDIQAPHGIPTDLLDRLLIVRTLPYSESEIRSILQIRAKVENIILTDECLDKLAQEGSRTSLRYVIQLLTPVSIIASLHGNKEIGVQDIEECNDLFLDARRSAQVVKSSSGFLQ
# T1: Sp_Png2 (S. pombe) (UniProt O74736)
# T1 sequence: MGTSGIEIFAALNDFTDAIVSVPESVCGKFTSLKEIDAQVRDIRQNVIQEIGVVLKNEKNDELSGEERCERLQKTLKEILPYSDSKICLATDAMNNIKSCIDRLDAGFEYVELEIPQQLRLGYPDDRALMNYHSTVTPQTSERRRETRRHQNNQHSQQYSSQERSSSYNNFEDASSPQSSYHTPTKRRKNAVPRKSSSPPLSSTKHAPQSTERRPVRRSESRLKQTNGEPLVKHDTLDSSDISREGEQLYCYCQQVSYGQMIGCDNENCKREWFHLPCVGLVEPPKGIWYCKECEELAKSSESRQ
# T2: Clr6p (S. pombe) (S. pombe) (UniProt O59702)
# T2 sequence: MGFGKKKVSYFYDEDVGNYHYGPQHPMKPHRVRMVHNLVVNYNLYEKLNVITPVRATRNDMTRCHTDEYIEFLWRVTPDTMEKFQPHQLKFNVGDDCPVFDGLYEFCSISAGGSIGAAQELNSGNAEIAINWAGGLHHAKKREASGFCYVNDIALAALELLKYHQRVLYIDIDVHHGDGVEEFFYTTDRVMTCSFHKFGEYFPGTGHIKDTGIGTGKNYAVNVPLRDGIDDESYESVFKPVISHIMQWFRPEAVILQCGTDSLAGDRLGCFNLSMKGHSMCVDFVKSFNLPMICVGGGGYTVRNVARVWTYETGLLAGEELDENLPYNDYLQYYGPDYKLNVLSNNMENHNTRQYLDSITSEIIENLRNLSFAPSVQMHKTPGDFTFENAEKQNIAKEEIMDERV
# T3: IES6 (S. pombe) (S. pombe) (UniProt Q9UTE8)
# T3 sequence: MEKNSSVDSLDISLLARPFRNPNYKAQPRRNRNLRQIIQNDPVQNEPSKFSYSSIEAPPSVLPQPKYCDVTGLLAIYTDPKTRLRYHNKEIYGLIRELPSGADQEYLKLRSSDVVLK
# B1: LAF2 (S. pombe) (protein, UniProt O74443 1-272)
# chain: MQILKDQENLNPDGGSFVLITPPLSPPKQKSLSYTNISRRHGMRACMKGIVYEVYKNQPKLWLQQELIWLRRKRIHPIPKARRNNHVGRWANRHSNVSSSSGSRGRSSVSSRDSSPSYSGALRSAERSISSSPSTIEARRRKSARGNGLNGAIDVANLPFEELPNFCPDMSVLDNRTHPRTLKAEWKGPPLDLSDDPYRDLLHPAELHLASTLRLPCLIYLDNKKRIFAEWHHRRQQGLTFRKTDAQRASRVDVNKASRLWKAFHEVGFFDD
# B2: ARP5 (S. pombe) (protein, UniProt Q9Y7X8 1-721)
# chain: MKIYAVREPVFSGPTPSFQNVSNDIPLVIDNGSWQLRAGWGGEKDPKLVFDNLVSRYRDRKLSRTSTLVGNDTLIEVGSRSIARSPFERNVISNWDLMEQVLDYTFLKLGIDRMEHPICMTEPLANPTYVRSTMTELLFELYNAPSVAYGIDGLFSFYHNTKPSSSGIVLNLGNAASHVIPVLNGERILSEAKRISWGGSQSSSYLLKLFQIKYPSFPIKMLPSQAELLMHDHCHVSSDYTHDIAHALDRDILERDEIVLQFPYTEAAAQEKSQEELELIAERKRESGRRLQAQAAIKRKEKAAERDRELATLTELQQQSLVLSRRAFQRALEEAGFEDESQLNAQVKNVQAKIRRAQRDQQRQEESEGSLDVTEIDVEQAFPLLNVPDAELDEAGLRQKRHQRLMKANYDARVRAKAEKAIEEAAEAERAEADERLRLENFSTWVNEKRETHKILLEKISKNKRLKFELNDRKSHASQMRMKSLATLASEQPIQKRKRKDQSEDNFGARDEDWKVYHDVLTAEQLEEERKKLLDQIYSLEKQLLEYDSQFTQANTYDTLNDPRATLLYAFTRGVSDFDVNDVAQAFQLHLNVEQIRVPEVIFSPSIVGIDQAGILEIMRSILQRHSLEEQQKLVSNVLITGGLGSLPGMETRIKRELTSIMPVGSSINVFRASNPLLDAWKGASEWSVTEKFKAAKVTREEYLEKGPEYIKEHSLGNINS
# B3: IES4 (S. pombe) (protein, UniProt Q9P7S9 1-194)
# chain: MSETLVLHLKVPTERFREVLSSLKEKQNFTASPSSQPKPQERPFQMKKPRAPYGMGPRAMKRREKAEKEKLGVVNDELAESSKPSSGAATPTRSAPKSSAGLINSGLRALDRSGKPCRRWEKKPISIRSISTIVWKLPLWIGTPDSIPNTPELPVKTTLDSVNEIAAALSTHAESSPMDATSPVDSMPESATGI
# B4: IES2 (S. pombe) (protein, UniProt O14210 1-295)
# chain: MARRRSTRRALVETPSDLNAQDSDSLSVSTKEELGDDALAAEEGQSVLDEQEIEEALEEDDTNYEEDIIDDEESAQVDEEELEEEEEEEEDATPEPVVTSKKNSRSKPKNGGASKRKASRRTVVDEDSENLEGDEEDGSFSDLKDLYSNPMPAQTTPVSMRMTKRQRAIQGILEEGEEDELLELPPETSGRKKLTPEEMALRRIENARRRKNQSERRLEEEKMETINRLLKRQSNTGKPRRGRAPNNPTSDSISRSKAVPKDRINMYQPFQCVRFKSTKEGSSLGVPEPLIRFFS
# B5: IEC3 (S. pombe) (protein, UniProt O94704 1-168)
# chain: MASVKSFKRKYLKLRKSFDSVVLETEEIEQKIAEISEVYRRILLENAHLNDLLIDMNSTVLPTPPASPPGSPYWEAKPVSHTVFLESPSDVFTLEKPIASTHRWLSKLTALSKSTNSTLSTPKSFHSPLQSRGISPSSAQSSAAVSSSRKQKRKRTSEGPSERRARKK
# B6: IEC5 (Ino Eighty Complex subunit 5, S. pombe) (protein, UniProt B8Y7Y5 1-144)
# chain: MAAQKKQGERVLPARSTRKRRQLPDMLYYDERTDSYVTPQERSLSEANAQTRPAPNTINQAVDAKQSAREARVQELMKSKLYHLRKQQKQARHKRDQWAIDYLEWKKNEDEDVWNSDAEATGPAEHTSSFLDALRFSQQFMKAE
# B7: IEC1 (S. pombe) (protein, UniProt Q9UTM0 1-249)
# chain: MSISSDTSGSVPGSPIDLEPESETICHWQSCEQDLLTLDNLVHHIHNGTTSNLRLISNINSILDHIGNRRPKYTCEWDDCPRKGMVQTSRFALVAHLRSHTGEKPFICSVPECDRSFTRSDALAKHMRTVHEADTLRPSDPIPKAHPMHPQNVANAMVQSAREARAQQQMHGVGNTNEDVENWLDAASMPKTSHDMYRLQKRKLQWVKEERTMLANHLEALERKLIDARNRKEKILNEIVKQVDPSISR
# Biological target: T1, Sp_Png2 (S. pombe)
# Assay: affinity purification with mass spectrometry; TAP of baits TAP-tagged at their genes from S. pombe extracts; eluates on 6-18% gels, Coomassie, bands and slices identified by MALDI peptide mapping and LC-MS/MS; common background removed, A-index cut-off 1.75
row,binding,Binder
1,binds,B1

# Biological target: T2, Clr6p (S. pombe) (S. pombe)
# Assay: as above
row,binding,Binder
1,binds,B1

# Biological target: T3, IES6 (S. pombe) (S. pombe)
# Assay: as above
row,binding,Binder
1,binds,B2
2,binds,B3
3,binds,B4
4,binds,B5
5,binds,B6
6,binds,B7

# Biological target: RVB1 (S. pombe) (S. pombe) (UniProt Q9C0X6)
# Assay: as above
row,binding,Binder
1,binds,B3
2,binds,B4
3,binds,B5
4,binds,B6
5,binds,B7
